The exact form of at least one protein or probe is not confirmed. Results from cells or extracts need not show a direct contact. Weaker means in comparison with the reference protein, sequence or condition of that experiment.
Biological target: YY1 (Mus musculus) (UniProt Q00899)
Test: binding assay
Details: ChIP-qPCR in mES cells; decreased vs wild type, p=0.0048; residual binding at additional CCAT motifs; protein in cells; protein details: endogenous, V6.5 mES cells; variant of Etv4 promoter wild type

The chains behind the UniProt entries cited, without tags or fusion partners.
UniProt Q00899, whole entry: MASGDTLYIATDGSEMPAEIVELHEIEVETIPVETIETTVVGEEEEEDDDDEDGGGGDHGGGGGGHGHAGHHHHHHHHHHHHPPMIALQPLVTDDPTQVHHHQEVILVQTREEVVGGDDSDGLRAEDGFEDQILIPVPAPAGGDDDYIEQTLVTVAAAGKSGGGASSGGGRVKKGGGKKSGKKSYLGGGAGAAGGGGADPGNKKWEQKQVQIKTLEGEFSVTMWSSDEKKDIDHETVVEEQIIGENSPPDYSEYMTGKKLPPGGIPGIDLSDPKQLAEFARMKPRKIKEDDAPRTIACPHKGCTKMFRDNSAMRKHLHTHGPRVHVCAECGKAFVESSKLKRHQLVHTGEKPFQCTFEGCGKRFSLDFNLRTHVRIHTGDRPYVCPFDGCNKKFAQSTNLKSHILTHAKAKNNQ

“ACTGTGTTTTCA (double strand) [Etv4 promoter YY1 motif deletion]”: binds more weakly.
